Experimental data taken from PubChem BioAssay AID588497 (NMMLSC, 2011).
Hit rate of the full screen: of about 360,000 compounds, about 780 (0.22%) were called active. Inconclusive results, whose numbers are uncertain, are shown with a selection of clear calls. Cut-off read from the data, not from the text of the source: active = inhibition above about 35% (passing the limit was not always enough); inconclusive = no clear call, values can overlap the other calls.

The compounds below were run on Botulinum neurotoxin type F light chain protease (Clostridium botulinum) (assay: BoNT/F light chain protease inhibitors, primary screen, biochemical, flow cytometry, MLPCN library (AID 588497; note: plate controls were buffer without enzyme for full effect and enzyme alone for no effect)). Details: Multiplex microsphere protease cleavage assay, at 10 µM, active compounds read high.
With CN1C(=O)C(=Cc2ccc(N3CCCCCC3)cc2)C(=O)N(C)C1=O the inhibition was inconclusive: 22%. Cc1cccc(NCc2cccc3ccccc23)n1 was tested, and the inhibition was inconclusive: 1.7%. CCn1cnc2c1c(=O)n(CC(=O)OC)c(=O)n2Cc1ccccc1 was tested, and the inhibition was inactive: -20.8%. With COc1ccc(N2Cc3ccccc3C2=O)cc1 the inhibition was inconclusive: -5.8%. With CCOc1ccc(/C=C2\SC(=S)N(CCC(=O)Nc3cccc(C(=O)O)c3)C2=O)cc1 the inhibition was inconclusive: -39.7%. For COc1ccc(-c2cn3cccnc3n2)cc1NC(=O)C(C)C, the inhibition was inactive: 2.3%. O=C(NNC(=O)c1ccc(Cl)c(S(=O)(=O)Nc2ccc(Cl)cc2)c1)c1ccc(=O)[nH]c1 was tested, and the inhibition was inconclusive: -12.3%. With O=C(COC(=O)c1ccccc1C(=O)c1ccc(Cl)cc1)NCCc1ccccc1 the inhibition was inactive: -1.7%. For COc1cc(C(=O)OCC(=O)Nc2ccc3c(c2)OC(F)(F)O3)ccc1OCc1c(C)noc1C, the inhibition was inactive: -15.2%. For Cc1cc2c(cc1C)N(Cc1ccc(Cl)cc1)C1=NCCCN12, the inhibition was inconclusive: -93.2%. For CCOP(=O)(c1ccccc1)C(O)c1ccc([N+](=O)[O-])cc1 (stereo unspecified), the inhibition was inconclusive: -31.5%. In the case of Cc1oc(-c2ccccc2Cl)nc1CSCC(=O)NC1CCCC1, the inhibition is reported as inactive: -2.1%. For COC(=O)CSc1nnc(Cc2ccccc2)n1-c1ccc(C)cc1, the inhibition was inactive: -14.8%. With O=C1OC(Nc2ccc(F)c([N+](=O)[O-])c2)c2ccccc21 (stereo unspecified) the inhibition was inconclusive: -269%. With NS(=O)(=O)c1ccc(CCNC(=O)COC(=O)Cc2ccc(Cl)cc2)cc1 the inhibition was inactive: -6.2%. O=C1CN(Cc2ccccc2)CC(=O)N1 was tested, and the inhibition was active: 45.5%. With O=C1CCCCCN1C(=O)c1ccccc1 the inhibition was inconclusive: -2%. For CCOCCOc1nc2c(c(=O)n(C)c(=O)n2C)n1CCc1ccccc1, the inhibition was inconclusive: -6.3%. With O=C1OCc2nc3cc4c(cc3c(-c3ccc(F)cc3)c21)OCO4 the inhibition was inconclusive: -1.1%. With c1ccc(C2=Nn3c(nnc3-c3cccs3)SC2)cc1 the inhibition was inconclusive: 81.2%. In the case of Cn1c(/N=C/c2c[nH]c3ccccc23)nc2ccccc21, the inhibition is reported as inconclusive: -1.2%. With Cc1ccc(NC(=O)CSc2nnc(N)s2)cc1S(=O)(=O)N1CCOCC1 the inhibition was inactive: -1.7%. In the case of Cc1cc(C)c(S(=O)(=O)N2CCCC2=O)c(C)c1N(C)S(C)(=O)=O, the inhibition is reported as inconclusive: -31%. In the case of COc1cc(C(=S)N2CCOCC2)cc(OC)c1OC(=O)c1ccccc1[N+](=O)[O-], the inhibition is reported as inconclusive: -27.9%. For Cc1c(F)cccc1NC(=O)c1ccc2c(c1)CCN2S(C)(=O)=O, the inhibition was inconclusive: 14.5%. For O=S(=O)(N/N=C/c1cccnc1)c1ccc(Cl)c(Cl)c1, the inhibition was inconclusive: -149%. With CCOc1cc(N2CCOCC2)c(OCC)cc1NC(=O)COC(=O)c1cc(C)cc(C)c1 the inhibition was inactive: -7.2%. In the case of Cc1c(NC(=S)NC(=O)c2cccc(Br)c2)c(=O)n(-c2ccccc2)n1C, the inhibition is reported as inconclusive: -3.9%. CCc1ccc(OCC(=O)Nc2ncn[nH]2)cc1 was tested, and the inhibition was inactive: -1.4%. O=C(N1CCOCCOc2ccccc2OCCOCC1)C(F)(F)F was tested, and the inhibition was inconclusive: 2.3%. With Cc1cc(C(=O)N2CCCC2(C)C(=O)NCC(C)C)nn1C(C)(C)C (stereo unspecified) the inhibition was inactive: 1.7%. In the case of Cc1cccc(N2C(=O)CC(N(C(=O)c3ccco3)c3cccc(C)c3)C2=O)c1 (stereo unspecified), the inhibition is reported as inactive: -7.4%. With CC(/C=C/c1ccco1)=N/NC(=O)C1COc2ccccc2O1 (stereo unspecified) the inhibition was inconclusive: 18.9%. In the case of CN(CC(=O)NC1CCN(Cc2ccccc2)CC1)S(=O)(=O)c1ccc(Cl)cc1, the inhibition is reported as active: 74.2%. With CC(C)(C)c1cc2nc3c(c(=O)n2[nH]1)CN(Cc1ccccc1)C3=O the inhibition was inconclusive: -96.8%. O=C1c2cccnc2Nc2ccccc2N1CCCF was tested, and the inhibition was inconclusive: -8.2%. Cc1ccc(C(=O)Nc2nc(=O)n(C(=O)c3ccccc3C)s2)cc1 was tested, and the inhibition was inactive: -4.9%. With Cc1c(NC(=O)N(C)c2ccccc2)c(=O)n(-c2ccccc2)n1C the inhibition was inconclusive: -0.1%. With COc1ccc(-c2nc(C#N)c(N3CCN(c4ccccc4)CC3)o2)cc1 the inhibition was inactive: -13.2%. With Cc1ccc(-c2cc(-c3ccccc3Cl)c(C#N)c(N)n2)o1 the inhibition was inactive: -11.9%. In the case of O=C(O)CCCCCNC(=O)/C(=C\c1ccco1)NC(=O)c1ccco1, the inhibition is reported as inconclusive: 22.7%. Cc1ccc(N2C(=O)C3C4C=CC(CC4)C3C2=O)cc1[N+](=O)[O-] (stereo unspecified) was tested, and the inhibition was inconclusive: 26.6%. In the case of CCc1ccccc1N1C(=O)[C@@H]2Cc3ccccc3CN2C1=O, the inhibition is reported as inconclusive: 99.8%. For O=S(=O)(CCN1CCOCC1)c1ccc(Cl)cc1, the inhibition was inconclusive: -30.9%. C/C(=N\NC(=O)c1ccc(N2CCCC2=O)cc1)c1ccccc1 was tested, and the inhibition was inactive: -6.9%. For Nc1ccccc1C(=O)NC12CC3CC(CC(C3)C1)C2, the inhibition was inconclusive: -29.3%. CCN(C)C1CN(Cc2cn(Cc3cccc(Cl)c3)nn2)S(=O)(=O)C1 (stereo unspecified) was tested, and the inhibition was inactive: 4%. NC(=O)c1cccc(Nc2nc(C(N)COCc3ccccc3)cs2)n1 (stereo unspecified) was tested, and the inhibition was inactive: -12.3%. For CN1CCCN(C(=O)c2c(F)cccc2Cl)CC1, the inhibition was inconclusive: 28.2%. For CC(=O)Nc1cccc(-c2ccnc3c2CC(C)(C(=O)Nc2ccc(Cl)cc2)O3)c1 (stereo unspecified), the inhibition was inactive: -11.5%. With COc1ccc(CC(CN)c2ccccc2)cc1 (stereo unspecified) the inhibition was inconclusive: -22.9%. With CCc1ccc(C(=O)NNc2ccc(C)c(Cl)c2)cc1 the inhibition was inconclusive: 4.4%. With N#Cc1ccc(C(=O)CSc2nnc(-c3ccc(C(F)(F)F)cn3)s2)cc1 the inhibition was inconclusive: 49.7%. Cc1ccc(Cc2c(-c3ccccc3)nc3c(Cl)cc(C(F)(F)F)cn23)cc1 was tested, and the inhibition was inactive: -5.4%. In the case of Cc1ccc(NC(=O)c2ccc([N+](=O)[O-])cc2Cl)nc1, the inhibition is reported as inactive: 3%. O=C(NC1CS(=O)(=O)CC1NCc1ccccc1)c1ccccc1 (stereo unspecified) was tested, and the inhibition was active: 72.4%. For COCCN(C(=O)COC(=O)/C=C/c1cccc(OC)c1)c1c(N)n(CC(C)C)c(=O)[nH]c1=O, the inhibition was inactive: -8.7%. For Cc1ccc(OCC(=O)N2CCN(c3nnc(-c4ccc(C)cc4)c4ccccc34)CC2)cc1, the inhibition was inactive: 3.3%. With COc1ccc(C(=O)C[n+]2cccc(Br)c2)cc1 the inhibition was inconclusive: 2.1%. For CN(C)c1ccc(/C=C/C=C2/SC(=S)N(c3ccccc3)C2=O)cc1, the inhibition was inconclusive: 23.1%. NC(=O)CCn1cnc2ccccc21 was tested, and the inhibition was inconclusive: 70.6%. In the case of CC(=O)c1csc(COc2ccc(Cl)cc2)n1, the inhibition is reported as inconclusive: 17.7%. In the case of CCCCn1c(N)c(N(CCOC)C(=O)c2cc3c(s2)CCC(C)C3)c(=O)[nH]c1=O (stereo unspecified), the inhibition is reported as inconclusive: -8.2%. Cc1ccccc1S(=O)(=O)NCc1ccc(N2CCN(C)CC2)cc1 was tested, and the inhibition was inconclusive: -3.9%. For Cc1cc(N/N=C/c2ccc(N(C)C)cc2)c2ccccc2n1, the inhibition was inconclusive: -8.1%. With O=[N+]([O-])c1ccccc1/C=C/CN1CCSCC1 the inhibition was inconclusive: 23.3%. O=C(c1ccccc1)[C@@H]1[C@@H](C(=O)c2ccc(F)cc2)[C@@]2(C(=O)Nc3ccccc32)[C@H]2c3ccccc3C=CN12 was tested, and the inhibition was inactive: 17.3%. With COc1ccc(C2CC(c3ccccc3OC(=O)/C=C/c3ccccc3)=NN2C(C)=O)cc1 (stereo unspecified) the inhibition was inconclusive: -9.7%. With Cc1ccc(S(=O)(=O)N2CC(O)C[C@H]2C(=O)OCC(=O)N2CCN(c3ccc(F)cc3)CC2)cc1C (stereo partly specified) the inhibition was active: 97.2%. With O=C(Nc1nccs1)c1ccc(Br)cc1 the inhibition was inconclusive: -25.5%. For COc1ccc(C2NC(=O)NC(C)=C2[N+](=O)[O-])cc1 (stereo unspecified), the inhibition was inconclusive: -15.2%. For CC(=O)c1ccc(S(=O)(=O)N(C)CCCC(=O)NCc2ccc3c(c2)OCO3)cc1, the inhibition was inactive: -9.8%. For Cc1c(Br)ccc(NC(=O)c2ccccc2[N+](=O)[O-])c1C, the inhibition was inactive: 0.4%. CCOC(=O)C1CCN(Cc2cnc(NC(=O)OC)s2)CC1 was tested, and the inhibition was inconclusive: 5.5%. In the case of COc1ccc(/C=C/C(=O)OC(C)CN2CCCCC2)cc1 (stereo unspecified), the inhibition is reported as inconclusive: 39.3%. CCn1c(/C=C/c2ccccc2F)nc2ccccc2c1=O was tested, and the inhibition was inconclusive: 7.4%. CCOc1ccc(OCC)c(NC(=O)C2CCN(S(=O)(=O)c3cccc4nonc34)CC2)c1 was tested, and the inhibition was inconclusive: -35.2%. COc1ccccc1N1CC(C(=O)Nc2nnc(SCC(=O)NC(C)C)s2)CC1=O (stereo unspecified) was tested, and the inhibition was inconclusive: 23.3%. For O=C(Nc1ccc(S(=O)(=O)N2CCOCC2)cc1)c1cccnc1, the inhibition was inconclusive: 27.6%. In the case of CC(=O)c1sc(NC(=O)C2CC(=O)N(Cc3ccccc3)C2)nc1-c1ccccc1 (stereo unspecified), the inhibition is reported as inconclusive: -0.3%. CCCCn1c(O)c(C(=O)/C=C/c2ccc3c(c2)OCO3)c(=O)[nH]c1=O was tested, and the inhibition was inconclusive: 65.3%. Cn1c(=O)c2cc(NC(=O)CCc3ccccc3)ccc2n1-c1ccccc1F was tested, and the inhibition was inactive: 1.5%. Cc1ccn2c(=O)c(NC(=O)COc3ccccc3)c(C)nc2c1 was tested, and the inhibition was inconclusive: -4.8%. With CN(C(=O)c1cncc(Br)c1)C1C2CC3CC(C2)CC1C3 (stereo unspecified) the inhibition was inconclusive: 5.2%. For S=C(c1ccc2c(c1)OCO2)N1CCOCC1, the inhibition was inconclusive: 54.8%. With O=C(CC1C(=O)NCCN1C(=O)c1ccc(F)cc1)OCc1ccccc1 (stereo unspecified) the inhibition was inconclusive: 3.7%. O=c1cc(C(F)(F)F)[nH]c2ccccc12 was tested, and the inhibition was inconclusive: -29.2%. In the case of COc1ccc2c(C)cc(SCC(=O)NC3CCCCC3)nc2c1, the inhibition is reported as inactive: -5.5%. In the case of O=C(O)c1ccc2c(c1Nc1ccccc1)C(=O)c1ccccc1C2=O, the inhibition is reported as inconclusive: 2.9%. For COC(=O)c1ccc(CN2CCC(CO)(CCOc3ccccc3)CC2)cc1, the inhibition was inconclusive: 3.2%. With CN(CC1CCCN(CCc2ccccc2F)C1)C(=O)c1cc2ccccc2o1 (stereo unspecified) the inhibition was inactive: -2.1%.
